Some results were stated once for a whole list of compounds, not compound by compound.
Test system: mice
Settings: 14-day study, the two highest doses

COC(=O)[C@]12CCC(C)(C)C[C@H]1[C@H]1C(=O)C=C3[C@@]4(C)C=C(C#N)C(=O)C(C)(C)[C@@H]4CC[C@@]3(C)[C@]1(C)CC2 [Compound 402, reference compound] gave a time to lethality of no more than 4 days.
